Data reported in PMC7819943, “Rice protein-binding microarrays: a tool to detect cis-acting elements near promoter regions in rice”.
The other results are listed elsewhere or left out.

These sequences were tested against T1, OsSMF1 (Oryza sativa, UniProt Q6ZLB0 1-436) (assay: protein-binding microarray (RPBM); PBS, 2% BSA, 51.3 ng/ul salmon testes DNA, 50 uM zinc acetate, 200 nM TF, 25 C, 1 h; high values mean tight binding). Conditions: protein: recombinant; tags: N-terminal polyhistidine and DsRed monomer fusion (pET32a); chain copies: 2; label: CyDye5-dUTP incorporated in the synthesized complementary strand; 3' TTTTT single-stranded linker to array surface; dsDNA, one strand shown.
T1 sequence: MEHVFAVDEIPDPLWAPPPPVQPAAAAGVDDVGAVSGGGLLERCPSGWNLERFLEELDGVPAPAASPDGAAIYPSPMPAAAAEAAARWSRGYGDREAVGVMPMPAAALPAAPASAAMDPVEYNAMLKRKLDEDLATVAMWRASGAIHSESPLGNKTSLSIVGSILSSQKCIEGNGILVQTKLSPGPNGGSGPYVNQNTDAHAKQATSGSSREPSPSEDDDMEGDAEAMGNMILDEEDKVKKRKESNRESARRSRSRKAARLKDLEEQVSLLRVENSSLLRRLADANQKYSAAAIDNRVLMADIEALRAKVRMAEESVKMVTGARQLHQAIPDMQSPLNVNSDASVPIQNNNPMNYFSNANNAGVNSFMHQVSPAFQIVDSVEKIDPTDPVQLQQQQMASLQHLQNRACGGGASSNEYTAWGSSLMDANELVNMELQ
Method in brief: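 Per-feature fluorescence intensity (arbitrary units), read on an Axon 4000B scanner, is the binding signal. Transcription factors carrying an N-terminal polyhistidine tag and DsRed fusion were expressed in E. coli BL21-CodonPlus and purified on Ni–NTA. A custom Agilent array, made double-stranded by primer extension with Cy5-dUTP and blocked with 2% BSA, was incubated with 200 nM protein in PBS, 2% BSA, salmon testes DNA and 50 µM zinc acetate at 25 °C for 1 h and then washed.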

Row | Sequence | binding signal
1 | TGGAAGGAAGAGCAAACAAAGTTGGCTGCCACGTCAGAAACGGAGTCACCTAGTGCAG | 14000 fluorescence intensity (a.u.)
2 | TATCGATTCCAGCCAACGATGACACTATGACTTCAATTCGCGGAGTCACCTAGTGCAG | 4280 fluorescence intensity (a.u.)
3 | TAATTAAATTGTCATATCACTTCTTAACTTATTGGACTAACGGAGTCACCTAGTGCAG | 3220 fluorescence intensity (a.u.)
4 | CTGCCGATCCTAGGGTGCCGCCGTCGGATGCAGTCTAGGCCGGAGTCACCTAGTGCAG | 3190 fluorescence intensity (a.u.)
5 | GCCAGCCCACCTCACCTGTTCCACAATACTAGTACAGCCCCGGAGTCACCTAGTGCAG | 22300 fluorescence intensity (a.u.)
6 | TATCACCGGCACGTGTCACTCCTAGGCGTTGTCAAACGTCCGGAGTCACCTAGTGCAG | 7220 fluorescence intensity (a.u.)
7 | CGTTAGTTACACACCGCACTCACACTGCCACGTGTGATCACGGAGTCACCTAGTGCAG | 16300 fluorescence intensity (a.u.)
8 | AAACAAGTTCCATGTCACACCGCATATTTCGAAATTAGCACGGAGTCACCTAGTGCAG | 5020 fluorescence intensity (a.u.)
9 | AGCTTTCCCATCGCCGCCGCGTCCATGGGGCCAGACCAACCGGAGTCACCTAGTGCAG | 3430 fluorescence intensity (a.u.)
10 | TGGTTCAAGTACCCACTGAGGTATGTAACACATTTGATCGCGGAGTCACCTAGTGCAG | 36300 fluorescence intensity (a.u.)
11 | ATGTAACTGTTGCTTCTAACTTCTGTTCCCCGTCACTGTGCGGAGTCACCTAGTGCAG | 6280 fluorescence intensity (a.u.)
12 | TGAAACGACGTCATCCAACCCGCGGGGTCTTTGCACGAGCCGGAGTCACCTAGTGCAG | 3720 fluorescence intensity (a.u.)
13 | GAGAGAGAGAGGAGAAGGCAGCCACGTGGTGGAGCAGGAGCGGAGTCACCTAGTGCAG | 4170 fluorescence intensity (a.u.)
14 | CACTTATATTAGGGGATGGAGGGAGTAGTACATTAACATCCGGAGTCACCTAGTGCAG | 3400 fluorescence intensity (a.u.)
15 | GGGTTGGTGAGGCGGTGGTCGCCGTGGACTCGGCGGCTGACGGAGTCACCTAGTGCAG | 3240 fluorescence intensity (a.u.)
16 | ACTATTAGGTATGTGGTATCCATAACCATGACAATGACCTCGGAGTCACCTAGTGCAG | 9860 fluorescence intensity (a.u.)
17 | AGATGAAGTCATTAGTGATAAGTCAGCTTGACTCATCACACGGAGTCACCTAGTGCAG | 5670 fluorescence intensity (a.u.)
18 | TTCGATTCCACGCAAGATTCCTCATGCTTCGCTAGCCATTCGGAGTCACCTAGTGCAG | 3970 fluorescence intensity (a.u.)
19 | ACTCCTACGCATGTCTGGCGTCACCCTGATGAGGCCAAATCGGAGTCACCTAGTGCAG | 5160 fluorescence intensity (a.u.)
20 | TGTCTGCGTCGTCACACTCTCACACACCTCTCGATTCATCCGGAGTCACCTAGTGCAG | 5850 fluorescence intensity (a.u.)
21 | CATCGAGCATGTGAGCAGTCGCCGGCACACTCTACCTCCTCGGAGTCACCTAGTGCAG | 25900 fluorescence intensity (a.u.)

Reprinted at random: 3 entries already listed.
Row | Sequence | binding signal
6 | TATCACCGGCACGTGTCACTCCTAGGCGTTGTCAAACGTCCGGAGTCACCTAGTGCAG | 7220 fluorescence intensity (a.u.)
18 | TTCGATTCCACGCAAGATTCCTCATGCTTCGCTAGCCATTCGGAGTCACCTAGTGCAG | 3970 fluorescence intensity (a.u.)
19 | ACTCCTACGCATGTCTGGCGTCACCCTGATGAGGCCAAATCGGAGTCACCTAGTGCAG | 5160 fluorescence intensity (a.u.)

The results go on.

Row | Sequence | binding signal
22 | CTGGAATCTGAGGGGAACCACGTCACGTACACAAGTATATCGGAGTCACCTAGTGCAG | 11800 fluorescence intensity (a.u.)
23 | ACAATATTGTCCTGTGCCTTACGTGCGCCCGCAGCCGCGACGGAGTCACCTAGTGCAG | 4700 fluorescence intensity (a.u.)
24 | TGAACCGGCCGGTTTTCATGTGAACCGTGAACCGTAATAACGGAGTCACCTAGTGCAG | 3240 fluorescence intensity (a.u.)
25 | TTGTGCAACGTCTTGTTATGAGTTAGCATCATGTGTAGCACGGAGTCACCTAGTGCAG | 3810 fluorescence intensity (a.u.)
26 | GAGGATTGACTGGTTAGGGTTAGATGACTCAAAGGGCATTCGGAGTCACCTAGTGCAG | 3640 fluorescence intensity (a.u.)
27 | ACGAAAGCGTCACGTTAATACCACGTGGGACGAAGATCTACGGAGTCACCTAGTGCAG | 6550 fluorescence intensity (a.u.)
28 | TCACATCCATGGGCCCACTTGTCATCCTCACGCTCTATGACGGAGTCACCTAGTGCAG | 3240 fluorescence intensity (a.u.)
29 | GTGATGACGAGTTCGTCTTCATCGCTTCCGGTGTCGGCTCCGGAGTCACCTAGTGCAG | 3300 fluorescence intensity (a.u.)
30 | CGATGGTGTGTGGGAAGGAGAAAAGGGATGTGGTGATGTGCGGAGTCACCTAGTGCAG | 4250 fluorescence intensity (a.u.)
31 | TGTCCATTCTTCTTGTTGTTGTTCTTGCTCGGGTGGTTAGCGGAGTCACCTAGTGCAG | 3260 fluorescence intensity (a.u.)
32 | CCGAATCGATGGCGACCCAGCTGGTGCGTCCCCGTCCCCGCGGAGTCACCTAGTGCAG | 4120 fluorescence intensity (a.u.)
33 | ATATTTTAAGGGAGTCCATGTGGACTTAATTCCTAGTGGCCGGAGTCACCTAGTGCAG | 4360 fluorescence intensity (a.u.)
34 | TTCCAATGAGAGACTAGTTGATCTTCCAATGGAGTAGCTACGGAGTCACCTAGTGCAG | 18800 fluorescence intensity (a.u.)
35 | GGCCCCACATGTCAGCTACCGCAACAGCTTACTACTTACTCGGAGTCACCTAGTGCAG | 4120 fluorescence intensity (a.u.)
36 | AAGACCAAGAATTGATGCCGTGGAACTTGCGTCGGACTTTCGGAGTCACCTAGTGCAG | 4670 fluorescence intensity (a.u.)
37 | AAGCTTCTTTCCCTCTTACGTCGGCACACGTCACGCAGCTCGGAGTCACCTAGTGCAG | 19700 fluorescence intensity (a.u.)
38 | GATGGTGTTTTATGGCCGAGTTAATGGGCTTTTATGGGCCCGGAGTCACCTAGTGCAG | 21200 fluorescence intensity (a.u.)
39 | ATCGCCGCCGGCGACACGCCATCTCAAATTCCGGTCGGACCGGAGTCACCTAGTGCAG | 5400 fluorescence intensity (a.u.)
40 | CACAGCCTTGTGTACAAATCACTTTGCACGTGACATAGCTCGGAGTCACCTAGTGCAG | 3800 fluorescence intensity (a.u.)
41 | AAACTTCTAACTTTTCCGTCACATCGTTCCAATTTCAACCCGGAGTCACCTAGTGCAG | 3240 fluorescence intensity (a.u.)
42 | CCGCACGCGCTCCCTTCACCCACCTCGATCGAGCTCCATGCGGAGTCACCTAGTGCAG | 3570 fluorescence intensity (a.u.)
